Literature values as cited in patent US6399560B1, “Biocide and biocidal cloth containing a metal pyridinethione and additional biocide” (Novapharm Research (Australia) Pty Ltd., priority 1997, dated 2002).
Some results were stated once for a whole list of compounds, not compound by compound. For at least one compound, name, drawing or mass did not settle the structure.

Details: cited from earlier work

## O=C(Nc1ccc(Cl)cc1)Nc1ccc(Cl)c(Cl)c1 [trichlorcarban]
  pH range of efficacy: ≥ 9.5 pH
